According to publication PMC10079955:
These are yes or no findings as the source states them, for the method shown. In cells and extracts the contact can be indirect. Some binding calls cover weakened binding; strength is not graded here. For some of these results: Tags and fused reporters may be left off the sequences shown.

Sequences of proteins named here, by UniProt entry; tags and fusion partners are left off.
UniProt Q09472: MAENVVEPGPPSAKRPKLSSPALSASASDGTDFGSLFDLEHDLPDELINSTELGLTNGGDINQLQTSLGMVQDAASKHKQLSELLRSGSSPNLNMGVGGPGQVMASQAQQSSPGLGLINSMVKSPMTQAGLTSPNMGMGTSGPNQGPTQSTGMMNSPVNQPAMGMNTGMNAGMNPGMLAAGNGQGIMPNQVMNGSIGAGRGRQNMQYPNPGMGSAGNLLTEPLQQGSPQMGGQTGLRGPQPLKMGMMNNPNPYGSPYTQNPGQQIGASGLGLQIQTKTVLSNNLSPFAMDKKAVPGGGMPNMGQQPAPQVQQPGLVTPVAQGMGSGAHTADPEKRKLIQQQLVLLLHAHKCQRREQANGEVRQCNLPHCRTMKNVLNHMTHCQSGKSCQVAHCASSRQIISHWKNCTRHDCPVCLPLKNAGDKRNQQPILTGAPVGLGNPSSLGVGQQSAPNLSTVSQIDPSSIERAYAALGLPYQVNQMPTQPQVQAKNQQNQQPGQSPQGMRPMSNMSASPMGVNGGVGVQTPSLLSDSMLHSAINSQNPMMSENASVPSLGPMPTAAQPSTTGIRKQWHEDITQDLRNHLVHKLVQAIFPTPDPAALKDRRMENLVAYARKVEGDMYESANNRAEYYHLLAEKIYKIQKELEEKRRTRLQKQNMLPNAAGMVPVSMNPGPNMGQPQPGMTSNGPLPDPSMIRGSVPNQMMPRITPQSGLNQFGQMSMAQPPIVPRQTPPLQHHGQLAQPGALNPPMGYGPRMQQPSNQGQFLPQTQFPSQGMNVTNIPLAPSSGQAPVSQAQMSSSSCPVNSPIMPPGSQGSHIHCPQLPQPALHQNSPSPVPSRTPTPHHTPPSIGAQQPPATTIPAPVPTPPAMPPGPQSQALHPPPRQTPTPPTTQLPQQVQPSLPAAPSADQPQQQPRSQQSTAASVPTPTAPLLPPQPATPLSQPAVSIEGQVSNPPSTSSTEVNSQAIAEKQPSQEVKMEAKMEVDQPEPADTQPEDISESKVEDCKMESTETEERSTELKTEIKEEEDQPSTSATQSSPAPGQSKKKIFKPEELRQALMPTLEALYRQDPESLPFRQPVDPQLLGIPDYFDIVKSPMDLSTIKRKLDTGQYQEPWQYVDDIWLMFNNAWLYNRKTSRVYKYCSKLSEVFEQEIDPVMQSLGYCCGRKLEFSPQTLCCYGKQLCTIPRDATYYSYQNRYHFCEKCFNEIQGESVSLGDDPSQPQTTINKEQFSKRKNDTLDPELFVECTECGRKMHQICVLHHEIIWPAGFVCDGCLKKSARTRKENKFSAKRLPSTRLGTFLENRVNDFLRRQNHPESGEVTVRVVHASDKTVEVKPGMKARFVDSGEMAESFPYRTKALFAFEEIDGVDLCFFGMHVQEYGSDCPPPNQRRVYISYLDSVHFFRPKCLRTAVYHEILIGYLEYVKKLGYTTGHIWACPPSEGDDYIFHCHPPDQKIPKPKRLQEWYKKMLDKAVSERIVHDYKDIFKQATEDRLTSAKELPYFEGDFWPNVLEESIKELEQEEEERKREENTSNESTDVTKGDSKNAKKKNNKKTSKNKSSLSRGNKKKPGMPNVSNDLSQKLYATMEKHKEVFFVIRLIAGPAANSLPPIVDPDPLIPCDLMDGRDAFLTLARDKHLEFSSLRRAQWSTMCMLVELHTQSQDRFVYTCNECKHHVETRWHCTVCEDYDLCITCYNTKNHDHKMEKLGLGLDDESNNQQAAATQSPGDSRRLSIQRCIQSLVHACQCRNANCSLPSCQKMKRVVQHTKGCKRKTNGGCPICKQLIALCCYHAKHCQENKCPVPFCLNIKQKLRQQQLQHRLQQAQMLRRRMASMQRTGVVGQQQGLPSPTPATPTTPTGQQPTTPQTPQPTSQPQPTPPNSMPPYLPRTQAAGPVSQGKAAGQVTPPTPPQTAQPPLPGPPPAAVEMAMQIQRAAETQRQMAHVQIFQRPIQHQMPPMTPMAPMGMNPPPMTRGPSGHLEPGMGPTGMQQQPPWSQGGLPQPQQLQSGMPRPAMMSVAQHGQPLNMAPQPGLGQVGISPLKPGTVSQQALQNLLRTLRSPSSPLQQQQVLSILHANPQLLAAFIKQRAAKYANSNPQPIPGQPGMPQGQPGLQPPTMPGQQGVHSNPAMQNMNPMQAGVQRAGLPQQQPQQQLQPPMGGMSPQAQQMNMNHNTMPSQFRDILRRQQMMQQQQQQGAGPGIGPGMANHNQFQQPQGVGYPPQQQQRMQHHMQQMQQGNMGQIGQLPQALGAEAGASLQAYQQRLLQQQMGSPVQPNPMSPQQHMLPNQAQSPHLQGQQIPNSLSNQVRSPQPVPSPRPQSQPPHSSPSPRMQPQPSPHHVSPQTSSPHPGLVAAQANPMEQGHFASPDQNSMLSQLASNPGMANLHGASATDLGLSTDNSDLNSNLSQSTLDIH
UniProt Q9UBN7: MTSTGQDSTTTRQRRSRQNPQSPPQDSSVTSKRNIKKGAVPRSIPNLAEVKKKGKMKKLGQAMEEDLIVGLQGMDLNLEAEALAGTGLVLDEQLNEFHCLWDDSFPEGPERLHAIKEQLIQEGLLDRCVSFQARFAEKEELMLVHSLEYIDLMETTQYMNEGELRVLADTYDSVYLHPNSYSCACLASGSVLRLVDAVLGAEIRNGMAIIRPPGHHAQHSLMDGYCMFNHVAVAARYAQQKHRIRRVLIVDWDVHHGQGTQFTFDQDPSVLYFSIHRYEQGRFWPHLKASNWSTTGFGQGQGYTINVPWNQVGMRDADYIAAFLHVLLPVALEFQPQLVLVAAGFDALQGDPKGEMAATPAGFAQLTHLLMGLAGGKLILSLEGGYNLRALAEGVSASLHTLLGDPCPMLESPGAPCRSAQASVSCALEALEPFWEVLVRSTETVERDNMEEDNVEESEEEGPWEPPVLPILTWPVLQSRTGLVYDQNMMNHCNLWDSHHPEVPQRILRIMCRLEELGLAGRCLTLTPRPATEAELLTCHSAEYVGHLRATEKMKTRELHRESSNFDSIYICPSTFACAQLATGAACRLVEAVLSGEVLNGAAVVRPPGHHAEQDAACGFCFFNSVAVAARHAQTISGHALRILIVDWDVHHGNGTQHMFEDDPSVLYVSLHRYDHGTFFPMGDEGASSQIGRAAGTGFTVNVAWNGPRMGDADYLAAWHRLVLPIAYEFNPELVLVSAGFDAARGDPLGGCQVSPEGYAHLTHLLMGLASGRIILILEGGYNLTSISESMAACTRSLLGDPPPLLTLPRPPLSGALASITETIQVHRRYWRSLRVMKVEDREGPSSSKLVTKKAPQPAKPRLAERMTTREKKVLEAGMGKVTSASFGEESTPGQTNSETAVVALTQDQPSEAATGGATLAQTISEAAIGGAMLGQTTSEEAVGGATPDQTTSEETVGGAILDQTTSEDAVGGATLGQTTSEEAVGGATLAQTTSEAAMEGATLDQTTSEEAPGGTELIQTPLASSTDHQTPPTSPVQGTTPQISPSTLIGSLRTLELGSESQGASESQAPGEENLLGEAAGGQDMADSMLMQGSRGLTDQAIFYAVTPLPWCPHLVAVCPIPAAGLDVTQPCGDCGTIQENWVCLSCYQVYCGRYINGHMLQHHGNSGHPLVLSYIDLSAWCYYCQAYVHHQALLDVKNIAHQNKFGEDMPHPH

Tests used:
[1] = biological target: T1, Cryptochrome 2 (endogenous, MCF7 cells) (human (endogenous in MCF7)) (UniProt Q49AN0); assay: co-IP; endogenous proteins in MCF7 cell extract (TNE lysis buffer: 20 mM Tris-HCl pH 7.4, 100 mM NaCl, 1 mM EDTA, 0.5% NP-40, 10% glycerol); antibody overnight at 4 °C, Protein A/G magnetic beads 2 h at 4 °C, three washes with TNE; immunoblot
T1 sequence: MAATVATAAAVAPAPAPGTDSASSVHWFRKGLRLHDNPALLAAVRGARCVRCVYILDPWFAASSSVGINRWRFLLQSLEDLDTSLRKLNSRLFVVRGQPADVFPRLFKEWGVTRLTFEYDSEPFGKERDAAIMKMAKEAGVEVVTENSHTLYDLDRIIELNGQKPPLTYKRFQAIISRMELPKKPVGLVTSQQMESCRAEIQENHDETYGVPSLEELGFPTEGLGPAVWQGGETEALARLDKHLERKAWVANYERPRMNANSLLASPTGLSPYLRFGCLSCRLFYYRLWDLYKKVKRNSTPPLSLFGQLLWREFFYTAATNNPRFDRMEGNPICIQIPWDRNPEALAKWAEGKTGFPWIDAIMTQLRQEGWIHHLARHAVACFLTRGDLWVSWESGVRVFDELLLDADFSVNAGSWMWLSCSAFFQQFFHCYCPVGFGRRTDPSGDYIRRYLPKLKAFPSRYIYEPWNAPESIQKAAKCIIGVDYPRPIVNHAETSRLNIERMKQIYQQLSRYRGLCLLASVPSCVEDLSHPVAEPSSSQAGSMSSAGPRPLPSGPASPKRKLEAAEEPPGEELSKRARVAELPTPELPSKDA

[2] = biological target: T2, Cry2 (exogenous, tagged, expressed in HEK293T cells) (UniProt Q49AN0); assay: co-IP; exogenous (transfected, tagged) proteins in HEK293T cell extract (TNE lysis buffer); antibody overnight at 4 °C, Protein A/G magnetic beads 2 h at 4 °C, three washes with TNE; immunoblot
T2 sequence: T1 sequence

Row | binding [1] | binding [2] | Substance
1 | binds | – | p300 (endogenous, MCF7 cells) (from UniProt Q09472 1-2414) (enzyme)
2 | – | binds | Myc-HDAC6 (from UniProt Q9UBN7 1-1215) (enzyme)
3 | – | binds | HA-p300 (from UniProt Q09472 1-2414) (enzyme)
4 | binds | – | histone deacetylase 6 (endogenous, MCF7 cells) (from UniProt Q9UBN7 1-1215) (enzyme)
